No constants are given. Whether binding was seen depends on the method and setting. Binding seen in cells or lysates may run through a third protein. Some results given as binding are weak or reduced against the parent protein; the word gives no strength. Values belong to the binder of their own block, whether it stands above or below them.
What was measured:
[1] = molecular target: SEL1L (human (endogenous in HEK293T)) (UniProt Q9UBV2); experiment: co-IP; IP of endogenous SEL1L with home-made anti-SEL1L antibody and protein A agarose from ~5 mg HEK293T lysate (WT, HRD1 KO; SEL1L KO and IgG as controls); 150 mM NaCl, 0.2% NP40, 0.1% Triton X-100, 25 mM Tris-HCl pH 7.5, 10 mM N-ethylmaleimide, 4 °C; immunoblot
[2] = molecular target: T1, phosphatidylinositol glycan anchor biosynthesis class K (human (endogenous in HEK293T)) (UniProt Q92643); experiment: co-IP; IP of endogenous PIGK with anti-PIGK (Abcam ab201693) and protein A agarose from HEK293T lysate (WT, SEL1L KO, HRD1 KO); 150 mM NaCl, 0.2% NP40, 0.1% Triton X-100, 25 mM Tris-HCl pH 7.5, 4 °C; immunoblot
T1 sequence: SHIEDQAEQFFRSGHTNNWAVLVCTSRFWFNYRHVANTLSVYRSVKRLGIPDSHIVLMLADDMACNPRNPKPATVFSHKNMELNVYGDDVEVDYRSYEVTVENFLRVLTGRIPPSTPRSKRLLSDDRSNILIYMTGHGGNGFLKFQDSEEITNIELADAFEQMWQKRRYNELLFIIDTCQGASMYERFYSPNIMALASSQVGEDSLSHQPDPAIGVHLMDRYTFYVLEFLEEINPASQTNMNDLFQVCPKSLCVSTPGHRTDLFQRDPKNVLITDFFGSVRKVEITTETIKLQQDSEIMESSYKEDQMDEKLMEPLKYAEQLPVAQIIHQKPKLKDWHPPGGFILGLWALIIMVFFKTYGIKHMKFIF

Chains of the proteins cited; added tags and fusions are not shown. Residues count along the entry.
UniProt Q9UBV2, residues 22-794: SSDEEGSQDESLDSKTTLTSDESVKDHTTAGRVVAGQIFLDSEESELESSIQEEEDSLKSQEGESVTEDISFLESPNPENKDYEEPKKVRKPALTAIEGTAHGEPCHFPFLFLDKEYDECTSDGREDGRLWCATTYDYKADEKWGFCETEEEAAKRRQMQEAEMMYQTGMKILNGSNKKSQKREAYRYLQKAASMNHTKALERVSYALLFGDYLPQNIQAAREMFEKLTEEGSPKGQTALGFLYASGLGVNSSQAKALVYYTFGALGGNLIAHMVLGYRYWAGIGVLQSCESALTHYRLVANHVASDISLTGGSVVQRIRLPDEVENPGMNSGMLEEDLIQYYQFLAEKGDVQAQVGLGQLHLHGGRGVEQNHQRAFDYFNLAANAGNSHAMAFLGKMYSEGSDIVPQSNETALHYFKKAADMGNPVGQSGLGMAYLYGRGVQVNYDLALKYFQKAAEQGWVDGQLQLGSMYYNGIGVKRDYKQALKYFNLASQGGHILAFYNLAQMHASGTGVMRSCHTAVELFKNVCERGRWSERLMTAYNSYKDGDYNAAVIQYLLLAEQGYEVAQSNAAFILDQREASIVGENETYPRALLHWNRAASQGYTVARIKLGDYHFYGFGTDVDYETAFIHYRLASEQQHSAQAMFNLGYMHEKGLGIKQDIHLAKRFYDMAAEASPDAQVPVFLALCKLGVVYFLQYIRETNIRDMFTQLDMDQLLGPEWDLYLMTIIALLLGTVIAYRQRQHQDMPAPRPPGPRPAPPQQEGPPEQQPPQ

- binding [1]: binds
B1: phosphatidylinositol glycan anchor biosynthesis class K (protein, UniProt Q92643 28-395)
chain: T1 sequence

- binding [2]: binds
- binding [1]: binds
B2: PIGT (protein, UniProt Q969N2 22-578)
chain: LAEPPRDSLREELVITPLPSGDVAATFQFRTRWDSELQREGVSHYRLFPKALGQLISKYSLRELHLSFTQGFWRTRYWGPPFLQAPSGAELWVWFQDTVTDVDKSWKELSNVLSGIFCASLNFIDSTNTVTPTASFKPLGLANDTDHYFLRYAVLPREVVCTENLTPWKKLLPCSSKAGLSVLLKADRLFHTSYHSQAVHIRPVCRNARCTSISWELRQTLSVVFDAFITGQGKKDWSLFRMFSRTLTEPCPLASESRVYVDITTYNQDNETLEVHPPPTTTYQDVILGTRKTYAIYDLLDTAMINNSRNLNIQLKWKRPPENEAPPVPFLHAQRYVSGYGLQKGELSTLLYNTHPYRAFPVLLLDTVPWYLRLYVHTLTITSKGKENKPSYIHYQPAQDRLQPHLLEMLIQLPANSVTKVSIQFERALLKWTEYTPDPNHGFYVSPSVLSALVPSMVAAKPVDWEESPLFNSLFPVSDGSNYFVRLYTEPLLVNLPTPDFSMPYNVICLTCTVVAVCYGSFYNLLTRTFHIEEPRTGGLAKRLANLIRRARGVPPL

- binding [1]: binds
B3: OS9 (protein, UniProt Q13438 26-667)
chain: GGVGSLNLEELSEMRYGIEILPLPVMGGQSQSSDVVIVSSKYKQRYECRLPAGAIHFQREREEETPAYQGPGIPELLSPMRDAPCLLKTKDWWTYEFCYGRHIQQYHMEDSEIKGEVLYLGYYQSAFDWDDETAKASKQHRLKRYHSQTYGNGSKCDLNGRPREAEVRFLCDEGAGISGDYIDRVDEPLSCSYVLTIRTPRLCPHPLLRPPPSAAPQAILCHPSLQPEEYMAYVQRQADSKQYGDKIIEELQDLGPQVWSETKSGVAPQKMAGASPTKDDSKDSDFWKMLNEPEDQAPGGEEVPAEEQDPSPEAADSASGAPNDFQNNVQVKVIRSPADLIRFIEELKGGTKKGKPNIGQEQPVDDAAEVPQREPEKERGDPERQREMEEEEDEDEDEDEDEDERQLLGEFEKELEGILLPSDRDRLRSEVKAGMERELENIIQETEKELDPDGLKKESERDRAMLALTSTLNKLIKRLEEKQSPELVKKHKKKRVVPKKPPPSPQPTEEDPEHRVRVRVTKLRLGGPNQDLTVLEMKRENPQLKQIEGLVKELLEREGLTAAGKIEIKIVRPWAEGTEEGARWLTDEDTRNLKEIFFNILVPGAEEAQKERQRQKELESNYRRVWGSPGGEGTGDLDEFDF

Source: PMC10803770
